{"source": "PubChem BioAssay AID1053208 (Peter MacCallum Cancer Centre, 2014)", "aim": "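Synthetic lethal interactions between gene loss and doxorubicin in osteosarcoma cells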 (primary screen)", "cells": "mouse osteosarcoma cells, early-passage culture from an engineered mouse model of fibroblastic bone tumour", "reagent": "siRNA pool against mouse genes, 40 nM", "duration": "about 120 h (48 h before drug, then 72 h with drug)", "conditions": "doxorubicin 100 nM for 72 h, roughly 30-40% inhibitory dose", "measured": "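Luminescent ATP signal taken as viability with or without 100 nM doxorubicin for 72 h; mean of two wells set against non-targeting siRNA and turned into robust z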", "scale": "viability z-score with doxorubicin: higher = more viable cells under doxorubicin; viability z-score without drug: higher = more viable cells with knock-down alone", "active means": "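a pool counts as active when its viability z-score with doxorubicin is -2 or below and its z-score without drug lies between -2 and 2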", "note": "The whole screen tested about 17,000 reagents; shown is a part drawn at random. Over the whole deposit, 788 (4.7%) were called active. 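Calls rest on z-score classes alone; an extra cut-off of viability at most 70% of control was not applied to them.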 Entries without a mark were called inactive. Further read-outs or replicates are left out here."}
{"Gene": "Foxc1 (GeneID 17300)", "combined z-score class": "no change with or without drug", "viability z-score with doxorubicin": 0, "viability z-score without drug": 1.85}
{"Gene": "Desi1 (GeneID 28075)", "combined z-score class": "no change with or without drug", "viability z-score with doxorubicin": 0.45, "viability z-score without drug": 0.34}
{"Gene": "Klk6 (GeneID 19144)", "combined z-score class": "no change with or without drug", "viability z-score with doxorubicin": -0.22, "viability z-score without drug": 1.01}
{"Gene": "E130114P18Rik (GeneID 319865)", "combined z-score class": "no change with or without drug", "viability z-score with doxorubicin": -0.67, "viability z-score without drug": 1.18}
{"Gene": "Slc27a2 (GeneID 26458)", "combined z-score class": "no change with or without drug", "viability z-score with doxorubicin": 0, "viability z-score without drug": 1.18}
{"Gene": "Trat1 (GeneID 77647)", "combined z-score class": "no change with or without drug", "viability z-score with doxorubicin": -1.12, "viability z-score without drug": -1.18}
{"Gene": "Efemp2 (GeneID 58859)", "combined z-score class": "no change with or without drug", "viability z-score with doxorubicin": -1.8, "viability z-score without drug": 0.34}
{"Gene": "Slc36a3 (GeneID 215332)", "combined z-score class": "no change with or without drug", "viability z-score with doxorubicin": -1.46, "viability z-score without drug": -0.17}
{"Gene": "Nup98 (GeneID 269966)", "combined z-score class": "low cell count with and without drug", "viability z-score with doxorubicin": -7.76, "viability z-score without drug": -9.61}
{"Gene": "Bcar1 (GeneID 12927)", "combined z-score class": "low cell count without drug only", "viability z-score with doxorubicin": -1.35, "viability z-score without drug": -2.19}
{"Gene": "Slc34a2 (GeneID 20531)", "combined z-score class": "no change with or without drug", "viability z-score with doxorubicin": -0.67, "viability z-score without drug": -1.01}
{"Gene": "Zbtb21 (GeneID 114565)", "combined z-score class": "low cell count with doxorubicin only (active)", "viability z-score with doxorubicin": -2.25, "viability z-score without drug": -0.51}
{"Gene": "Wdr17 (GeneID 244484)", "combined z-score class": "no change with or without drug", "viability z-score with doxorubicin": 1.24, "viability z-score without drug": 1.35}
{"Gene": "Mettl15 (GeneID 76894)", "combined z-score class": "no change with or without drug", "viability z-score with doxorubicin": 0.34, "viability z-score without drug": 0.17}
{"Gene": "Zfp646 (GeneID 233905)", "combined z-score class": "no change with or without drug", "viability z-score with doxorubicin": -0.9, "viability z-score without drug": -0.84}
{"Gene": "Clcn1 (GeneID 12723)", "combined z-score class": "no change with or without drug", "viability z-score with doxorubicin": -0.45, "viability z-score without drug": -0.17}
{"Gene": "Anxa2 (GeneID 12306)", "combined z-score class": "no change with or without drug", "viability z-score with doxorubicin": -0.22, "viability z-score without drug": 0.67}
{"Gene": "Tlr3 (GeneID 142980)", "combined z-score class": "high without drug; low with doxorubicin", "viability z-score with doxorubicin": -2.25, "viability z-score without drug": 2.02}
{"Gene": "Hacl2 (GeneID 216136)", "combined z-score class": "no change with or without drug", "viability z-score with doxorubicin": -1.35, "viability z-score without drug": -0.84}
{"Gene": "Csn3 (GeneID 12994)", "combined z-score class": "no change with or without drug", "viability z-score with doxorubicin": 1.57, "viability z-score without drug": 1.18}
{"Gene": "Aplp2 (GeneID 11804)", "combined z-score class": "no change with or without drug", "viability z-score with doxorubicin": -0.9, "viability z-score without drug": -0.34}
{"Gene": "Ccng2 (GeneID 12452)", "combined z-score class": "no change with or without drug", "viability z-score with doxorubicin": 0.9, "viability z-score without drug": 1.52}
{"Gene": "Wdr26 (GeneID 226757)", "combined z-score class": "no change with or without drug", "viability z-score with doxorubicin": -0.67, "viability z-score without drug": 0.17}
{"Gene": "Als2cl (GeneID 235633)", "combined z-score class": "no change with or without drug", "viability z-score with doxorubicin": -0.22, "viability z-score without drug": 0}
{"Gene": "Chrnb1 (GeneID 11443)", "combined z-score class": "no change with or without drug", "viability z-score with doxorubicin": 1.12, "viability z-score without drug": 0.67}
{"Gene": "Tgm5 (GeneID 74176)", "combined z-score class": "no change with or without drug", "viability z-score with doxorubicin": -0.67, "viability z-score without drug": -0.51}
{"Gene": "B830004H01Rik (GeneID 320289)", "combined z-score class": "no change with or without drug", "viability z-score with doxorubicin": 0.79, "viability z-score without drug": 0}
{"Gene": "Clip3 (GeneID 76686)", "combined z-score class": "no change with or without drug", "viability z-score with doxorubicin": 0.45, "viability z-score without drug": 0}

A portion of the results above:
{"Gene": "Chrnb1 (GeneID 11443)", "combined z-score class": "no change with or without drug", "viability z-score with doxorubicin": 1.12, "viability z-score without drug": 0.67}
{"Gene": "Tgm5 (GeneID 74176)", "combined z-score class": "no change with or without drug", "viability z-score with doxorubicin": -0.67, "viability z-score without drug": -0.51}
